# From patent US7470518B2 (priority 2002, dated 2008)
# For at least one compound, name, drawing or mass did not settle the structure.
# System: PC-12 cells
# Assay: Whole-cell patch clamp current response of PC-12 cells to 1 mM acetylcholine (re-sensitization and scanning experiments)
# Assay type: cell-based
# Settings: fast scan rates (tens of ms), FIG. 21D, 4 mm/s
# Text: The patch clamp electrode solution contained 100-mM KCl, 2-mM MgCl2, 1-mM CaCl2, 11-mM EGTA, and 10-mM HEPES; pH was adjusted to 7.2 with KOH.
# In these applications, as discussed above, both the flow rate of the fluids exiting the microchannels and the scan rate of the patch clamped cell are important. […] The width of each channel is 100 μm, the thickness is 50 μm, and the interchannel spacing is 25 μm. The procedure used for fabricating the microchannels and for patch clamping are identical to that described in Example 2 (see above). The patch clamped cell used was a PC-12 cell, which was placed between 10 to 20 micrometers away from the outlets of the microchannels. Channels 1, 3, 5 and 7 were filled with PBS buffer, while channels 2, 4 and 6 were filled with acetylcholine. The flow rate of the fluid streams was 6.8 mm/s.
structure (smiles),measurement,value
CC(=O)OCC[N+](C)(C)C [acetylcholine],desensitisation on scanning across acetylcholine streams,no desensitisation can be detected
